The list is a part of this screen's results and no random one: it is rich in T/C values a quarter to a half above the control, in often repeated tests (any T/C) and in doses without a T/C. Further doses and runs are listed elsewhere. T/C is the treated group as % of the vehicle group. Some entries give survivors of the animals treated and no T/C: the source holds a T/C of zero for them, seemingly a mark for toxic or unscored doses. Some survivor counts are full or nearly so, which does not show that the dose was tolerated: survival well below the control is almost never listed, so the zero probably covers shortened survival too. Counts of survivors are from the toxicity check (mostly the fifth day) where no day follows; animals may have died later. Schedule codes are those of the source, taken here to give the interval after Q, in days (D) or hours (H), and the number of doses after X. Some entries were tested several times; the values are given in rising order. Some schedule codes hold Z or #, which are not explained here. Where survival is the endpoint, this PubChem deposit counts one and a half times the control or more as active, and values a quarter to a half above the control carry no call in these data; other NCI protocols may use other cut-offs.

The test system of this experiment is L1210 leukemia ip in BDF1 mice, survival T/C. The experiment is described as follows: NCI In Vivo Anticancer Drug Screen. Data for tumor model L1210 Leukemia (intraperitoneal) in B6D2F1 (BDF1) mice. The conditions noted are these: T/C endpoint: mean survival time, higher T/C = longer survival.
Where [1] appears, read: dose: 100.0 mg/kg/injection, schedule: Q04DX003 (ip), vehicle: Klucel (hydroxypropylcellulose) (HPC).
Setting [2] is: dose: 200.0 mg/kg/injection, schedule: Q04DX003 (ip), vehicle: Klucel (hydroxypropylcellulose) (HPC).
[3] abbreviates: dose: 400.0 mg/kg/injection, schedule: Q04DX003 (ip), vehicle: Klucel (hydroxypropylcellulose) (HPC).
The mark [4] stands for this setting: dose: 200.0 mg/kg/injection, schedule: Q01DX001 (ip), vehicle: saline.
Where [5] appears, read: dose: 400.0 mg/kg/injection, schedule: Q01DX001 (ip), vehicle: saline.
[6] abbreviates: dose: 200.0 mg/kg/injection, schedule: Q04DX003 (ip), vehicle: saline.
Where [7] appears, read: dose: 400.0 mg/kg/injection, schedule: Q04DX003 (ip), vehicle: saline.
The mark [8] stands for this setting: dose: 200.0 mg/kg/injection, schedule: Q01DX001 (ip), vehicle: Klucel (hydroxypropylcellulose) (HPC).
The mark [9] stands for this setting: dose: 400.0 mg/kg/injection, schedule: Q01DX001 (ip), vehicle: Klucel (hydroxypropylcellulose) (HPC).
Setting [10] is: dose: 50.0 mg/kg/injection, schedule: Q01DX009 (ip), vehicle: saline with Tween-80.
The mark [11] stands for this setting: dose: 100.0 mg/kg/injection, schedule: Q01DX009 (ip), vehicle: Klucel (hydroxypropylcellulose) (HPC).
Setting [12] is: dose: 200.0 mg/kg/injection, schedule: Q01DX009 (ip), vehicle: saline with Tween-80.
Setting [13] is: dose: 400.0 mg/kg/injection, schedule: Q01DX001 (ip), vehicle: saline with Tween-80.
The mark [14] stands for this setting: dose: 100.0 mg/kg/injection, schedule: Q04DX002 (ip), vehicle: saline with Tween-80.
The mark [15] stands for this setting: dose: 400.0 mg/kg/injection, schedule: Q04DX003 (ip), vehicle: saline with Tween-80.

`O=C1C=CC(=O)c2nc(-c3ccccn3)c(-c3ccccn3)nc21`: the survivor count was 1 of 6 under setting [1], 1 of 6 under setting [2] and 0 of 6 under setting [3].
Turning to `c1cc2c(c3c1CC1c4cc5c(cc4CCN1C3)OCO5)OCO2` (centres undefined), the survivor count was 4 of 4 under setting [4] and 4 of 4 under setting [5].
`N#CCCCC[P+](c1ccccc1)(c1ccccc1)c1ccccc1`: the survivor count is, setting by setting: (dose: 100.0 mg/kg/injection, schedule: Q01DX009 (ip), vehicle: saline) 0 of 6 and 1 of 6; (dose: 200.0 mg/kg/injection, schedule: Q01DX009 (ip), vehicle: saline) 0 of 6; (dose: 400.0 mg/kg/injection, schedule: Q01DX009 (ip), vehicle: saline) 0 of 6.
On to `C#CCOC(C(=O)OC1CCN(C)CC1)(c1ccccc1)c1ccccc1`, for which the survivor count under setting [6] is 0 of 6 and the survivor count under setting [7] is given as 0 of 6.
Consider `Cc1cc([N+](=O)[O-])c(C)cc1O`, for which, under “dose: 300.0 mg/kg/injection, schedule: Q01DX001 (ip), vehicle: saline”, the survivor count was 0 of 6.
Regarding `CCCC(O)CNCc1ccc2c3c(cccc13)CC2` (centres undefined), the survivor count (dose: 100.0 mg/kg/injection, schedule: Q01DX001 (ip), vehicle: Klucel (hydroxypropylcellulose) (HPC)) is 1 of 3; the survivor count under setting [8] is given as 0 of 3; the survivor count under setting [9] is listed as 0 of 3.
For `Cc1ccc(S(=O)(=O)COS(=O)(=O)C(F)(F)F)cc1`, under setting [3], the survivor count was 4 of 6.
Take `CCOC(=O)NCC(CCN(C)CC)(c1cccc2ccccc12)C(C)C` (centres undefined): the survivor count under setting [10] was 0 of 6; the survivor count under setting [11] is recorded as 1 of 6; the survivor count (dose: 200.0 mg/kg/injection, schedule: Q01DX009 (ip), vehicle: Klucel (hydroxypropylcellulose) (HPC)) is 0 of 6; the survivor count (dose: 400.0 mg/kg/injection, schedule: Q01DX009 (ip), vehicle: Klucel (hydroxypropylcellulose) (HPC)) is 0 of 6.
Consider `CCN(CC)CCNc1ccc(N=Nc2ccc(SC)cc2)c2ccccc12`, for which the survivor count under setting [12] is 1 of 6.
For `O=[N+]([O-])c1ccc(N/N=C\c2ccc(OCCOCCCl)cc2)c([N+](=O)[O-])c1`, the survivor count was 6 of 6 (dose: 200.0 mg/kg/injection, schedule: Q01DX001 (ip), vehicle: saline with Tween-80) and 6 of 6 under setting [13].
Regarding `O=C(COC(=O)c1ccccc1)NCCCCc1ccccc1`, the survivor count reads like this: under setting [14], 3 of 3; under setting [13], 6 of 6; under setting [15], 6 of 6.
Turning to `O=C(COCC(=O)N/N=C/c1ccc(Cl)c(Cl)c1)N/N=C/c1ccc(Cl)c(Cl)c1`, the survivor count by setting is: under setting [10], 6 of 6; (dose: 100.0 mg/kg/injection, schedule: Q01DX009 (ip), vehicle: saline with Tween-80) 6 of 6; (dose: 100.0 mg/kg/injection, schedule: Q04DX003 (ip), vehicle: saline with Tween-80) 6 of 6; under setting [12], 6 of 6; under setting [15], 6 of 6.
Consider `Cc1ccc(S(=O)(O)=S)cc1.[Fe]`, for which the survivor count (dose: 150.0 mg/kg/injection, schedule: Q01DX001 (ip), vehicle: saline) is 6 of 6.
As to `CCOC(=O)[C@H]1CCC[C@@H](NC(=O)N(CCCl)N=O)C1`, the survivor count is, setting by setting: (dose: 125.0 mg/kg/injection, schedule: Q01DX001 (ip), vehicle: other) 6 of 6; (dose: 250.0 mg/kg/injection, schedule: Q01DX001 (ip), vehicle: other) 6 of 6; (dose: 375.0 mg/kg/injection, schedule: Q01DX001 (ip), vehicle: other) 4 of 6; (dose: 500.0 mg/kg/injection, schedule: Q01DX001 (ip), vehicle: other) 1 of 6; (dose: 750.0 mg/kg/injection, schedule: Q01DX001 (ip), vehicle: other) 0 of 6; (dose: 1000.0 mg/kg/injection, schedule: Q01DX001 (ip), vehicle: other) 1 of 6.
For the compound `CCCCNC(c1ccccc1)C(Cl)c1ccccc1` (centres undefined), the survivor count under setting [3] was 2 of 6.
In the case of `C=C[P+](c1ccccc1)(c1ccccc1)c1ccccc1`, the survivor count (dose: 4.6 mg/kg/injection, schedule: Q01DX009 (ip), vehicle: saline) is reported as 0 of 6; the survivor count (dose: 6.25 mg/kg/injection, schedule: Q04DX003 (ip), vehicle: saline) is recorded as 6 of 6; the survivor count (dose: 7.0 mg/kg/injection, schedule: Q01DX009 (ip), vehicle: saline) was 0 of 6; the survivor count (dose: 10.0 mg/kg/injection, schedule: Q01DX009 (ip), vehicle: saline) is 0 of 6; the survivor count (dose: 40.0 mg/kg/injection, schedule: Q04DX003 (ip), vehicle: saline) is given as 3 of 6; the survivor count (dose: 50.0 mg/kg/injection, schedule: Q01DX001 (ip), vehicle: saline) is 0 of 4. Moreover, the survivor count is, setting by setting: (dose: 80.0 mg/kg/injection, schedule: Q01DX001 (ip), vehicle: saline) 1 of 4; (dose: 80.0 mg/kg/injection, schedule: Q04DX003 (ip), vehicle: saline) 0 of 6; (dose: 100.0 mg/kg/injection, schedule: Q01DX001 (ip), vehicle: saline) 0 of 4; (dose: 100.0 mg/kg/injection, schedule: Q04DX003 (ip), vehicle: saline) 0 of 6; under setting [4], 0 of 4; under setting [6], 0 of 6. Further, the survivor count runs as follows: under setting [5], 0 of 4; under setting [7], 0 of 6. Also, the T/C (dose: 20.0 mg/kg/injection, schedule: Q01DX001 (ip), vehicle: saline) is 125 % of control.
With `ClCCCN(CCCCl)c1ccc(C=Nc2cccc(Cl)c2)c(Cl)c1`, the survivor count under setting [1] is given as 6 of 6, the survivor count under setting [2] was 6 of 6 and the survivor count under setting [3] is listed as 6 of 6.
Regarding `Nc1cc2ccc3ccccc3c2c2ccccc12`, under setting [8], the T/C is 125 % of control. Further, the survivor count is reported as 1 of 6 under setting [8]; 1 of 6 (dose: 300.0 mg/kg/injection, schedule: Q01DX001 (ip), vehicle: Klucel (hydroxypropylcellulose) (HPC)); 2 of 6 under setting [9].
As for `CCNC(C)C`, the survivor count was 2 of 6 under setting [6] and 0 of 6 under setting [7].
Consider `CC(Br)c1ccc(S(=O)(=O)F)cc1` (centres undefined), for which, under “dose: 400.0 mg/kg/injection, schedule: Q04DX002 (ip), vehicle: saline with Tween-80”, the survivor count is on record as 3 of 3.
As for `O=C(c1ccccc1)c1ccsc1C(=O)O`, under setting [14], the survivor count is 3 of 3.
On to `CSc1ncnc(C)c1N`, for which, for the setting “dose: 125.0 mg/kg/injection, schedule: Q01DX Z (ip), vehicle: saline”, the survivor count was 0 of 6.
As to `CC[As](=O)(O)CC`, the survivor count under setting [7] was 0 of 6.
Turning to `C[CH2][Ge]1([CH2]C)[CH2]CC2(C[CH2]1)NC(=O)N(CCCN(C)C)C2=O`, the survivor count (dose: 400.0 mg/kg/injection, schedule: Q04DX002 (ip), vehicle: saline) was 0 of 3.
With `CCc1ccccc1NC(=O)NCc1ccc(C)c(C)c1`, the survivor count under setting [11] is 6 of 6.
Regarding `O=C(NCCCOc1ccc([N+](=O)[O-])cc1)OCc1ccccc1`, the survivor count under setting [3] is 1 of 6.
